{
  "source": "patent US9371521B2",
  "about": "“Substituted pyrazinedithiol reducing agents” (Wisconsin Alumni Research Foundation, priority 2014, dated 2016)",
  "test": "Equilibrium reaction with oxidized βME",
  "assay_type": "physicochemical",
  "conditions": "excess reduced BMMP, 24 h, pH 7.0, HPLC",
  "note": "“Also recorded” adds a separate entry of the source.",
  "data": [
    {"smiles": "SCc1nccnc1CS", "note": "[BMMP, 2,3-bis(mercaptomethyl)pyrazine]", "values": [
      {"measurement": "Extent of reduction of βMEox at equilibrium", "result": "quantitative reduction; also recorded: complete reduction"}
    ]}
  ]
}
